Test results from publication PMC10606571.
These are yes or no findings as the source states them, for the method shown. Binding seen in cells or lysates may run through a third protein. Some entries that bind do so weakly or less than the wild type.

Protein sequences, listed by entry. Tags and fused reporters are not part of them. Residues count along the entry.
UniProt P35869, residues 11-848: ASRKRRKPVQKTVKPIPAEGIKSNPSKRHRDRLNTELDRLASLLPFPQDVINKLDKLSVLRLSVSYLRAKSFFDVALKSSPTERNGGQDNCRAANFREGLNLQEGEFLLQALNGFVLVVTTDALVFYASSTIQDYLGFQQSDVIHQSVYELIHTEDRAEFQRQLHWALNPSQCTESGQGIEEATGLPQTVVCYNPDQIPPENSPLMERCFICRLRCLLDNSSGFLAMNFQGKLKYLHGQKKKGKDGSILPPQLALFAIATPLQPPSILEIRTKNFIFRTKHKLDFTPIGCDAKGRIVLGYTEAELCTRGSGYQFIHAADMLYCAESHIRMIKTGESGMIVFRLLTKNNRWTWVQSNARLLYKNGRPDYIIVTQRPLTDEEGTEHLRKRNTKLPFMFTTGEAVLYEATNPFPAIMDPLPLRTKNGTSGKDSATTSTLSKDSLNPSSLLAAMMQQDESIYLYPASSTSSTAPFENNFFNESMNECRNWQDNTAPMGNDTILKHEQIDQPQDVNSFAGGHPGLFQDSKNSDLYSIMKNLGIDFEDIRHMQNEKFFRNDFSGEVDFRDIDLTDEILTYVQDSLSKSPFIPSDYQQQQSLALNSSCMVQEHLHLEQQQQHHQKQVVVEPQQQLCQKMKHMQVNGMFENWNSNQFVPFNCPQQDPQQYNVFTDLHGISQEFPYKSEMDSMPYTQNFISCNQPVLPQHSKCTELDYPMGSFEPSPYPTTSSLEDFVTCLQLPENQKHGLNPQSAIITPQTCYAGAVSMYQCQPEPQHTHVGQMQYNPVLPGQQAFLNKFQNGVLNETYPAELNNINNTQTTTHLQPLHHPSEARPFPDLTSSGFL
UniProt P11142: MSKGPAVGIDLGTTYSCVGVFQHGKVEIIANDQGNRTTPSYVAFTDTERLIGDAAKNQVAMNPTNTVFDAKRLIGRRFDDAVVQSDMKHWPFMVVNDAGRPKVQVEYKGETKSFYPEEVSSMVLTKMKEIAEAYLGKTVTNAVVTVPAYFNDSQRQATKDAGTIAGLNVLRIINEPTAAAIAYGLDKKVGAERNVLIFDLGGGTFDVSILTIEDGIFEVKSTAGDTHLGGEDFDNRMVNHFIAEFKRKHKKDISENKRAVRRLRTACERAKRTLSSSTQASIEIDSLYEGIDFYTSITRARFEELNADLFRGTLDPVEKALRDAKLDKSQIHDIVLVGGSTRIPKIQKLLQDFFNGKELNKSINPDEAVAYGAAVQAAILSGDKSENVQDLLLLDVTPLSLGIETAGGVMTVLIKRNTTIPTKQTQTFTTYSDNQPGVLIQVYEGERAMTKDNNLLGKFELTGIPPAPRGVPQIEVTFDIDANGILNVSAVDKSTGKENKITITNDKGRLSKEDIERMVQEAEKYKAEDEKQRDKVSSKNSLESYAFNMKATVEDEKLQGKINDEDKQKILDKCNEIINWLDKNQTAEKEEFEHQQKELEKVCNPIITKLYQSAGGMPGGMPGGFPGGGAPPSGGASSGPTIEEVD

Molecular target: aryl hydrocarbon receptor (AHR) (human (endogenous in A549)) (UniProt P35869)
Assay: co-IP; A549 cells treated with or without 100 uM CQ for 6 h; about 2 mg whole cell extract with rabbit anti-AHR antibody SA210 and Dynabeads Protein G, IP buffer with 150 mM NaCl and 0.05% Tween-20, 16-18 h in a cold room; Western blot for AHR, LAMP2 and Hsc70

binding: binds
Substance: heat shock cognate 70 kDa protein (HSC70) (from UniProt P11142 1-646)
